{
  "sequences": {"note": "By UniProt entry, the sequences of proteins in these tests, tags left out.", "UniProt P13569, whole entry, stated change not applied": "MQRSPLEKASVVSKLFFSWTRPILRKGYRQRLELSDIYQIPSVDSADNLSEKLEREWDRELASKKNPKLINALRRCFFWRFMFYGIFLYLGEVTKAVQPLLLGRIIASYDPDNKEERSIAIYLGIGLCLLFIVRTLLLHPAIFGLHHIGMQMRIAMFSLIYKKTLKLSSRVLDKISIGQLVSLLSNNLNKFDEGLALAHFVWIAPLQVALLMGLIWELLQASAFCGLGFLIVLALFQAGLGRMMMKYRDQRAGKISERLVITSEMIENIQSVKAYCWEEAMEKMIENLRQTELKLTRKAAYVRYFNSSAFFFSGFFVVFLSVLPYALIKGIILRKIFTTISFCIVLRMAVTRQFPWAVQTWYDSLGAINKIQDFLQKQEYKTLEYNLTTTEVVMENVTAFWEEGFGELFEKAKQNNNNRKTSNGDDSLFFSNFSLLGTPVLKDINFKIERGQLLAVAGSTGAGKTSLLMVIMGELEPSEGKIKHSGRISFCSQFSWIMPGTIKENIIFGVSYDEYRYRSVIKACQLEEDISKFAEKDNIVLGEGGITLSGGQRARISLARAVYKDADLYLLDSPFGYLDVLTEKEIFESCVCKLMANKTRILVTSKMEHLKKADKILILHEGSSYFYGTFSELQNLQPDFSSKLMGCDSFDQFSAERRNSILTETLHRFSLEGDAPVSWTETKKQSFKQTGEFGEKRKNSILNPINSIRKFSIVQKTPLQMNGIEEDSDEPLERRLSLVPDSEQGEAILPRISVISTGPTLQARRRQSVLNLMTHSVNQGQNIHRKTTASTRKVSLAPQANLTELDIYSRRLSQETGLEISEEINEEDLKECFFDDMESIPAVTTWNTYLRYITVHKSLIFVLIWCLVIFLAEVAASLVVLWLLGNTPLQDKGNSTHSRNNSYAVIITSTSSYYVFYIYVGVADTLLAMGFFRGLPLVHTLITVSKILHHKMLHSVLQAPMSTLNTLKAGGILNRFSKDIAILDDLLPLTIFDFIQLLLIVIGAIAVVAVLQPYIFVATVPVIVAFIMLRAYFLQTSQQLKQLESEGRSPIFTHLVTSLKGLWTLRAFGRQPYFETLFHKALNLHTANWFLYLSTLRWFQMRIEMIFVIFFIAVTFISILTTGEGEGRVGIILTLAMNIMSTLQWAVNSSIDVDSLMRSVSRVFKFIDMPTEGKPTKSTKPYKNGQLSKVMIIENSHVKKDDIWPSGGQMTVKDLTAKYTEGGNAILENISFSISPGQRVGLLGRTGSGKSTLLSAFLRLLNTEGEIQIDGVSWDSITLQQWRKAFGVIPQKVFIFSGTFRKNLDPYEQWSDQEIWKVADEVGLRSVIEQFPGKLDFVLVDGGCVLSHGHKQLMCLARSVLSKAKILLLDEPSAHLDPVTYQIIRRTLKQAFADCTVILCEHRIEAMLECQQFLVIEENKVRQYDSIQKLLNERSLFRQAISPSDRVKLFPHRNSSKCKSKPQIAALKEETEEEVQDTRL"},
  "source": "patent US12465602B2",
  "about": "“Use of an opioid molecule for treating dry eye and eyes suffering from allergies” (H4 ORPHAN PHARMA, priority 2019, dated 2025)",
  "target": "T1, non-mutated CFTR (Homo sapiens, UniProt P13569)",
  "T1 construct": "endogenous in cells; host or cells: human glandular (lacrimal gland) epithelial cells, polarised on Snapwell filters",
  "experiment": "Ussing chamber short-circuit current on lacrimal gland epithelial cells expressing non-mutated CFTR",
  "format": "cell-based",
  "details": "forskolin 0.05 μM",
  "from_the_text": "To study this action on the modulation of CFTR, the inventors have used the Ussing chamber method, invented by the Danish Hans H. Ussing at the end of the 1950s. This technique allows studying ionic exchanges through an epithelium, as they allow maintaining the tissue of interest in survival for a few hours under controlled conditions of temperature and medium. The positioning of the tissue between two half-chambers allows defining an apical compartment (corresponding to the lumen of the organ) and a basolateral compartment (corresponding to the blood compartment) and studying the exchanges between these two compartments via the tissue.\nThis technique is commonly used and it is particularly well-suited for a pharmacological approach of ionic transports and to search for molecules of therapeutic interest in the context of ionic secretions from epithelial cells. It consists in measuring the transepithelial current (called short-circuit and denoted Ise). Ise is expressed in amperes relative to the unit surface area of the epithelium (Ise in μA/cm2). The cells are cultured on a porous filter for 10 to 15 days at the liquid-liquid then air-liquid interface in order to mimic conditions close to in vivo. The transepithelial resistance is regularly measured during the culture. […]",
  "note": "At least one structure is not confirmed: it was looked up by name or label, or the drawing left a doubt.",
  "data": [
    {"smiles": "C=C[C@@]1(C)CC(=O)[C@]2(O)[C@@]3(C)[C@@H](O)CCC(C)(C)[C@@H]3[C@H](O)[C@H](OC(C)=O)[C@@]2(C)O1", "note": "[forskolin]", "values": [
      {"measurement": "potential after addition of forskolin", "setting": "apical side, changes from 20", "result": 27, "unit": "μA/cm2"},
      {"measurement": "potential after addition of forskolin, second series", "setting": "lacrimal gland epithelial cells, switches from 3.5", "result": 6.5, "unit": "μA/cm2"}
    ]}
  ]
}
